Test results reported in the supplement of paper PMC12819154, “High-throughput peptide-centric local stability assay extends protein–ligand identification to membrane proteins, tissues and bacteria” (Nature Structural & Molecular Biology, 2025).
This is one part of the list. Small differences around the control level are noise.

The chains behind the UniProt entries cited, without tags or fusion partners. Where a name states a change or a piece, a line headed by the entry shows the natural chain unless it says otherwise.
UniProt O94864: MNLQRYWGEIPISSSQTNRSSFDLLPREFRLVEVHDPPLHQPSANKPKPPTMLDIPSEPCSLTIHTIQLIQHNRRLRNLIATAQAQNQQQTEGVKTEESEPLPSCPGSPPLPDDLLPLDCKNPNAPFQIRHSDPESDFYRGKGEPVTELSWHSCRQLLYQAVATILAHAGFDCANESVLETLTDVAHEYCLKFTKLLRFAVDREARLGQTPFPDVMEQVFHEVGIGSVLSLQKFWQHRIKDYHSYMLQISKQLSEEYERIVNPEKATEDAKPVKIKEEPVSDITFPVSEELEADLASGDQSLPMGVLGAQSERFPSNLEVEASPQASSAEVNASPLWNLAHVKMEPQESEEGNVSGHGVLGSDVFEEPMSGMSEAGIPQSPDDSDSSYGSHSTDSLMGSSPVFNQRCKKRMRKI
UniProt O95239: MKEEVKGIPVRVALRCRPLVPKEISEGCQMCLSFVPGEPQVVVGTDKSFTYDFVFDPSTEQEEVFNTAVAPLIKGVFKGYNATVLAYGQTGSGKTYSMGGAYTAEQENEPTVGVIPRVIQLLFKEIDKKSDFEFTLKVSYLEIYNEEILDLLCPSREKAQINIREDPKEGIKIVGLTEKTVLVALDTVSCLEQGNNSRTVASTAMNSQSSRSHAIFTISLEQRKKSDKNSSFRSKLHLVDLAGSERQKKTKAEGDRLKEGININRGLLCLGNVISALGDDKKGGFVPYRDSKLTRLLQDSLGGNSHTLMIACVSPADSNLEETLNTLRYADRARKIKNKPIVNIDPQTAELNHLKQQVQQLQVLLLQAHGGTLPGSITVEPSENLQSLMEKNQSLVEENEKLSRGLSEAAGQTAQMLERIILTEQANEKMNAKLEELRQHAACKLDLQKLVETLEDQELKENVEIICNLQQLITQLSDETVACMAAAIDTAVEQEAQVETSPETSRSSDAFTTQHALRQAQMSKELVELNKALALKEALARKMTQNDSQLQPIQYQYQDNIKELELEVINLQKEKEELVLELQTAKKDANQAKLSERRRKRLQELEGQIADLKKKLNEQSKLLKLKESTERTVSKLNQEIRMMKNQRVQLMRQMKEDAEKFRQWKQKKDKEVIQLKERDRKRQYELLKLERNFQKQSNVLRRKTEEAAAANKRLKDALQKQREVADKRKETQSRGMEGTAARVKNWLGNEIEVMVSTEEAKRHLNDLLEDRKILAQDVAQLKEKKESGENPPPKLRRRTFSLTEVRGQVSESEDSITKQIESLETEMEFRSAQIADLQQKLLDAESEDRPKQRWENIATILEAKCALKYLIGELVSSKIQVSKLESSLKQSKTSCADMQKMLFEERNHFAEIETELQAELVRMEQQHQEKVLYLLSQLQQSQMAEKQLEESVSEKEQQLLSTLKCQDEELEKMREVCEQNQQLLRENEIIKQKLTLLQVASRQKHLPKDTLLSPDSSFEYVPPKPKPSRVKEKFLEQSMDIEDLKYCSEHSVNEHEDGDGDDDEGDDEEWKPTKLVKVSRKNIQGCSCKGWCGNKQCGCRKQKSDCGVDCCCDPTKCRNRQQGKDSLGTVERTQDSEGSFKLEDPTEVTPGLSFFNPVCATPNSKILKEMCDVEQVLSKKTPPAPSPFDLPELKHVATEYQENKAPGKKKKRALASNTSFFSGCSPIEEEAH
UniProt O94915: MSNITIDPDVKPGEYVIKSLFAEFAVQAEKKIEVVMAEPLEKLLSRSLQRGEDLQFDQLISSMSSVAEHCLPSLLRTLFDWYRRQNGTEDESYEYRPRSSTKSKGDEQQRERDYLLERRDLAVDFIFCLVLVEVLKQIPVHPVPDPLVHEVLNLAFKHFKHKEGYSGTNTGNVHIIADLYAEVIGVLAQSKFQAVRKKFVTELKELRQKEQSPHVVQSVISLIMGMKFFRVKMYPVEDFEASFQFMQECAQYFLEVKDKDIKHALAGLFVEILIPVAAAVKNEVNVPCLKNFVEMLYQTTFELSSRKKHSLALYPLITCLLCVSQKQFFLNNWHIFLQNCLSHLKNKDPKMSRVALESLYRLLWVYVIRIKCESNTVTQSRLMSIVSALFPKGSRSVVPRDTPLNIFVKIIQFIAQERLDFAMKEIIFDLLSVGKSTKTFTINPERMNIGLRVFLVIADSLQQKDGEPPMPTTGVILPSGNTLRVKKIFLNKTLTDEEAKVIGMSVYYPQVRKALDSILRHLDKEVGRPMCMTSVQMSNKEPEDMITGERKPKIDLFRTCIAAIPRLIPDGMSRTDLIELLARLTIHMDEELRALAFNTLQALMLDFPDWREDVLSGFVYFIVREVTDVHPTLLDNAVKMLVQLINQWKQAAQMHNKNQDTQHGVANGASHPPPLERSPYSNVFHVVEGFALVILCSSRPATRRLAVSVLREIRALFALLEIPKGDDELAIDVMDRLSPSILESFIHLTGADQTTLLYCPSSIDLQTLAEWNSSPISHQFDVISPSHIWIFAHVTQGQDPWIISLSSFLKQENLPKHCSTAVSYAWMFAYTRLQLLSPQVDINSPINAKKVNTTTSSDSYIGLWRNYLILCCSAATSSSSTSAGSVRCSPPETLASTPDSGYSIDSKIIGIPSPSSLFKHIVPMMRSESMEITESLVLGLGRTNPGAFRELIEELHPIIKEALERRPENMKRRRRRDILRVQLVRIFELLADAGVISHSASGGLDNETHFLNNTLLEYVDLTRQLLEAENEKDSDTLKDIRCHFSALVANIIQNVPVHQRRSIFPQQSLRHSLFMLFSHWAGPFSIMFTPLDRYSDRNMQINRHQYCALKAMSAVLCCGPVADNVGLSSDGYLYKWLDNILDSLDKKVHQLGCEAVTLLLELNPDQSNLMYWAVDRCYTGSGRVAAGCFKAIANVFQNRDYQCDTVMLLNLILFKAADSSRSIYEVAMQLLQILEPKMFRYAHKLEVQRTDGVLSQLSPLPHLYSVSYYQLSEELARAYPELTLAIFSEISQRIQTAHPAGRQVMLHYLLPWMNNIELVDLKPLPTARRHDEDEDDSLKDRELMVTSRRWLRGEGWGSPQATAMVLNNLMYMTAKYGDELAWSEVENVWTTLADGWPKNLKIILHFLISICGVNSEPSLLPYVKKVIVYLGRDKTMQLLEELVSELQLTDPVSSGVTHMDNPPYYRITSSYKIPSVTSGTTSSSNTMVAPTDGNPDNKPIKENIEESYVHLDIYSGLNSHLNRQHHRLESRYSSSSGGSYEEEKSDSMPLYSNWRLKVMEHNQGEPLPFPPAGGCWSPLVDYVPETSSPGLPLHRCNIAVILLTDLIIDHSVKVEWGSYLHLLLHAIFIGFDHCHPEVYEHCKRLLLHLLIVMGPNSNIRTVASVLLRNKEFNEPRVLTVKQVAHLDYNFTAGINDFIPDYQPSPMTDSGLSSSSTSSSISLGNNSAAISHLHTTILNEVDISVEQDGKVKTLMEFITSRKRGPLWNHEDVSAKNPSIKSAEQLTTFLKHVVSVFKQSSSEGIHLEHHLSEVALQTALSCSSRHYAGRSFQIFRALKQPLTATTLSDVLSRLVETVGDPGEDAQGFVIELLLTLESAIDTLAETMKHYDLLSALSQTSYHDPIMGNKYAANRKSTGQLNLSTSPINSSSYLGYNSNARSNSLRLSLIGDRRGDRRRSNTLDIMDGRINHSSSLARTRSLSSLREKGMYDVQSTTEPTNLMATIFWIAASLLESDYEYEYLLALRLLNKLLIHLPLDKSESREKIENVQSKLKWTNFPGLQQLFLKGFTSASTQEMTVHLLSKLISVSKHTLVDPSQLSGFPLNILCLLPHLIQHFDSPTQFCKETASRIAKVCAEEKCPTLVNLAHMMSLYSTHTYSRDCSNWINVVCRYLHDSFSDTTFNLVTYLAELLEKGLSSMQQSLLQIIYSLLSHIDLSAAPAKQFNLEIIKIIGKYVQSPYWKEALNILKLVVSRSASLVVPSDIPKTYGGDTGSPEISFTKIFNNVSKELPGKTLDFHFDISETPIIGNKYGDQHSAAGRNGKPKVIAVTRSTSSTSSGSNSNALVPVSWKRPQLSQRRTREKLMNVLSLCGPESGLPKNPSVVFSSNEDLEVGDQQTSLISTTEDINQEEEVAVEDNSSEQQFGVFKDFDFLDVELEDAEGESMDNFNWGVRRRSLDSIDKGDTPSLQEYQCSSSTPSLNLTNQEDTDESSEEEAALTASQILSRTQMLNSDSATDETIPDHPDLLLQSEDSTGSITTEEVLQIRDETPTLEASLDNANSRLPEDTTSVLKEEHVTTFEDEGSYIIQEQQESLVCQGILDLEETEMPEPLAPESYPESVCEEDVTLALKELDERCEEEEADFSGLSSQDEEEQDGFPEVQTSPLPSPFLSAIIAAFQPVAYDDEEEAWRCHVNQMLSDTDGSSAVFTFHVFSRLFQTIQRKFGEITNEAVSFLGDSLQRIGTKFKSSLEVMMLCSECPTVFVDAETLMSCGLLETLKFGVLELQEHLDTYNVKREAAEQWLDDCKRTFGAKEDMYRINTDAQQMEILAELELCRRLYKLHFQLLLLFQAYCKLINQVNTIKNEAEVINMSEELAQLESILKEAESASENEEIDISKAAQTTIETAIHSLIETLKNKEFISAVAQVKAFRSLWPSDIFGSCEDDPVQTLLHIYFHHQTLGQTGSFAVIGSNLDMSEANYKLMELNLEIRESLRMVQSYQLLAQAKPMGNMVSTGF
UniProt O95503: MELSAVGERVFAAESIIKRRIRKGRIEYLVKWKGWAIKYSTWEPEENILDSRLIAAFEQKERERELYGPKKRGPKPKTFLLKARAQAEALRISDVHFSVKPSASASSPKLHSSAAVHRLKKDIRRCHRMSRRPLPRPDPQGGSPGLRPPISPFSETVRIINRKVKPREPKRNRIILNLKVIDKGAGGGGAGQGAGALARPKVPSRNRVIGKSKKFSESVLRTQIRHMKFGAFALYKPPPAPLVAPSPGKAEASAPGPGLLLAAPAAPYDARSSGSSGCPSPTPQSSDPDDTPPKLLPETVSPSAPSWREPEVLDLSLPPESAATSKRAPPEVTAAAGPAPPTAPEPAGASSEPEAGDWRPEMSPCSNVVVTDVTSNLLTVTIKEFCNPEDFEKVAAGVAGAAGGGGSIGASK
UniProt O75629: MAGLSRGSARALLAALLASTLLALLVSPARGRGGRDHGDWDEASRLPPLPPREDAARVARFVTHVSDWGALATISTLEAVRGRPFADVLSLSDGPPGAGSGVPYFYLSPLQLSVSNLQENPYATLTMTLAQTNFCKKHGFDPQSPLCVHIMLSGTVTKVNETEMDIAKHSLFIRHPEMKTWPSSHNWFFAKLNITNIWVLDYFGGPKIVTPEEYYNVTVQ
UniProt O75832: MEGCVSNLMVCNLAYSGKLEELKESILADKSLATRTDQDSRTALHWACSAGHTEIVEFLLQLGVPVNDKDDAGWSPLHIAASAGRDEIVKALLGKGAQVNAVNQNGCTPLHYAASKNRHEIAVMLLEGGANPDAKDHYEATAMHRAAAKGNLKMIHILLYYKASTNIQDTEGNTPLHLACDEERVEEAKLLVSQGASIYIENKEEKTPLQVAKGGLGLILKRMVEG
UniProt O75955: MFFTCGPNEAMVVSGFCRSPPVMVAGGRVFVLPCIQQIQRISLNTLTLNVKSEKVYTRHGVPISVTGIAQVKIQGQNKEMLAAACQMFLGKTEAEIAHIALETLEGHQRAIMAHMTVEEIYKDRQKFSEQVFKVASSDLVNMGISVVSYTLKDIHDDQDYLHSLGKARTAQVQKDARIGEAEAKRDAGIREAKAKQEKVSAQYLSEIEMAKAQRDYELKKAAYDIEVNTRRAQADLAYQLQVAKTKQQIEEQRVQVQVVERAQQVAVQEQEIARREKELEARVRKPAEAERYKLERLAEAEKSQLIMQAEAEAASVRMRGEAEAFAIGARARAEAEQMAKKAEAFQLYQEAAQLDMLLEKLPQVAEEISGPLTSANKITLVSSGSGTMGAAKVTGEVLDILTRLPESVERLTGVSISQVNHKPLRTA
UniProt P00746, whole entry: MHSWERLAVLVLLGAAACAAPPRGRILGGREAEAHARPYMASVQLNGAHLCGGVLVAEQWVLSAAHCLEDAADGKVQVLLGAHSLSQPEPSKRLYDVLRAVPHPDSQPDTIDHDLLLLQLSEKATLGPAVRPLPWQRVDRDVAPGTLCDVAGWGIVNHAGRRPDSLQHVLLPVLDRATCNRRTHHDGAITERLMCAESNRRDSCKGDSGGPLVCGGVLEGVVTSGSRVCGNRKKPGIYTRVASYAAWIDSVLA
UniProt O94768: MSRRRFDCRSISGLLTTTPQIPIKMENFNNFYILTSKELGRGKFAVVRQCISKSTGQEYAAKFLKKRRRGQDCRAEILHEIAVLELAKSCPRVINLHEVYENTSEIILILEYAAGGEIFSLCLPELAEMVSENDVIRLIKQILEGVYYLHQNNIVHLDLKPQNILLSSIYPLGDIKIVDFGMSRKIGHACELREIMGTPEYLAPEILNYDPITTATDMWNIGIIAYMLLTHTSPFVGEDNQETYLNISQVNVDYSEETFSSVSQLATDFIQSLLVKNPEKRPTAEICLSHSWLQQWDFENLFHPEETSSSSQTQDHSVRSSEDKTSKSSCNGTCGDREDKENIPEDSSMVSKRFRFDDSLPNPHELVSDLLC

Compound: Cc1nc(Nc2ncc(C(=O)Nc3c(C)cccc3Cl)s2)cc(N2CCN(CCO)CC2)n1 [dasatinib]
Assay: log2 fold change of tryptic peptide abundance, ligand vs vehicle (limited proteolysis) (log2 ratio); higher = more trypsin-susceptible (destabilized)
Conditions: ligand concentration: 5 uM; sample: K562 cleared lysate

| Target | log2 fold change |
| --- | --- |
| GGPS1 (peptide sequence: TQETVQR, peptide start residue: 4) (UniProt O95749) | 0.228 |
| TOX4 (peptide sequence: TVVVEAGKK, peptide start residue: 200) (UniProt O94842) | -0.13 |
| SUPT7L (peptide sequence: IKDYHSYMLQISK, peptide start residue: 239) (UniProt O94864) | -0.239 |
| KIF4A (peptide sequence: EMCDVEQVLSK, peptide start residue: 1169) (UniProt O95239) | -0.287 |
| SEC24B (peptide sequence: IVPQPPLQK, peptide start residue: 1139) (UniProt O95487) | -0.237 |
| UniProt O95478 (peptide sequence: AGKWEVPLPK, peptide start residue: 114) | -0.333 |
| FRYL (peptide sequence: QFNLEIIK, peptide start residue: 2221) (UniProt O94915) | 0.516 |
| KIF20A (peptide sequence: EAGNINTSLHTLGR, peptide start residue: 426) (UniProt O95235) | -0.364 |
| SFT2D2 (peptide sequence: VLSGQDTEDR, peptide start residue: 7) (UniProt O95562) | 0.0474 |
| UniProt O95503 (peptide sequence: VIDKGAGGGGAGQGAGALAR, peptide start residue: 180) | 0.773 |
| PPM1B (peptide sequence: SGEEGMPDLAHVMR, peptide start residue: 327) (UniProt O75688) | 0.138 |
| CREG1 (peptide sequence: DHGDWDEASR, peptide start residue: 36) (UniProt O75629) | -0.0163 |
| RTN3 (peptide sequence: DAELPSEEVLK, peptide start residue: 765) (UniProt O95197) | -0.108 |
| UniProt O96017 (peptide sequence: SCEYCFDEPLLKR, peptide start residue: 120) | -0.122 |
| SUPT3H (peptide sequence: GIDEDDLLEDKLSGSNNANKR, peptide start residue: 113) (UniProt O75486) | 0.0883 |
| UniProt O94826 (peptide sequence: SDEDKDKEGEALEVK, peptide start residue: 279) | 0.634 |
| NEBL (peptide sequence: DEAEKMLSNYSTIADTPEIQR, peptide start residue: 562) (UniProt O76041) | -0.102 |
| UniProt O95759 (peptide sequence: ISLWNDHFVEYGR, peptide start residue: 476) | -0.0611 |
| GOT2 (peptide sequence: VGAFTMVCKDADEAK, peptide start residue: 288) (UniProt P00505) | 0.82 |

| Target | log2 fold change |
| --- | --- |
| UniProt O94804 (peptide sequence: KSLHINGGGSAAEQR, peptide start residue: 823) | -1.08 |
| PSMD10 (peptide sequence: NRHEIAVMLLEGGANPDAK, peptide start residue: 117) (UniProt O75832) | 0.18 |
| MBD3 (peptide sequence: GKPDLNTALPVR, peptide start residue: 91) (UniProt O95983) | -0.28 |
| ATG7 (peptide sequence: LAESSVDLNLK, peptide start residue: 328) (UniProt O95352) | 0.165 |
| GCAT (peptide sequence: VQISAVHSEEDIDR, peptide start residue: 390) (UniProt O75600) | 0.113 |
| PMPCB (peptide sequence: QMLCYNR, peptide start residue: 425) (UniProt O75439) | 0.226 |
| ZFPL1 (peptide sequence: DDDRTPGLHGDCDDDKYR, peptide start residue: 219) (UniProt O95159) | 0.0335 |
| PPP1R37 (peptide sequence: TCEALEEVFKR, peptide start residue: 123) (UniProt O75864) | -0.416 |
| E2F6 (peptide sequence: KLPSLLLDPTEETVR, peptide start residue: 9) (UniProt O75461) | -0.286 |
| CPD (peptide sequence: LRQHHDEYEDEIR, peptide start residue: 1337) (UniProt O75976) | 0.207 |
| FLOT1 (peptide sequence: GEAEAFAIGAR, peptide start residue: 320) (UniProt O75955) | 0.319 |
| UBXN7 (peptide sequence: AAHGGSAASSALK, peptide start residue: 2) (UniProt O94888) | 0.152 |
| PCNT (peptide sequence: DVPSGHTR, peptide start residue: 3254) (UniProt O95613) | -0.166 |
| AIFM1 (peptide sequence: LNDGSQITYEK, peptide start residue: 245) (UniProt O95831) | -0.438 |
| UniProt P00746 (peptide sequence: THHDGAITER, peptide start residue: 183) | 0.395 |
| UniProt O95319 (peptide sequence: KAALEAQNALHNIK, peptide start residue: 94) | 0.312 |
| UniProt O94768 (peptide sequence: AEILHEIAVLELAK, peptide start residue: 75) | 0.148 |
| MOCS3 (peptide sequence: LVPVSPLPPK, peptide start residue: 43) (UniProt O95396) | 0.164 |

Two neighbouring records already listed:

| Target | log2 fold change |
| --- | --- |
| PMPCB (peptide sequence: QMLCYNR, peptide start residue: 425) (UniProt O75439) | 0.226 |
| ZFPL1 (peptide sequence: DDDRTPGLHGDCDDDKYR, peptide start residue: 219) (UniProt O95159) | 0.0335 |
